No constants are given. Whether binding was seen depends on the method and setting. In cells and extracts the contact can be indirect. Here binding means that the protein was enriched with, or labelled near, the bait; the list need not be complete. Tags and fused reporters may be left off the sequences shown.
Legend:
[1] = molecular target: FLAG-HA-iASPP (stably expressed in HeLa cells) (UniProt Q8WUF5); experiment: affinity purification with mass spectrometry; tandem affinity purification from HeLa cells stably expressing the FLAG-HA-tagged bait (iASPP or CEP55): lysis in BC100 buffer (20 mM Tris-Cl pH 7.9, 100 mM NaCl, 0.2 mM EDTA, 20% glycerol) with 0.2% Triton X-100; anti-FLAG M2 agarose, FLAG peptide elution, then anti-HA agarose, HA peptide elution; SDS-PAGE, gel bands sequenced by LC-MS/MS
[2] = molecular target: T1, FLAG-HA-CEP55 (stably expressed in HeLa cells) (UniProt Q53EZ4); experiment: as above
T1 sequence: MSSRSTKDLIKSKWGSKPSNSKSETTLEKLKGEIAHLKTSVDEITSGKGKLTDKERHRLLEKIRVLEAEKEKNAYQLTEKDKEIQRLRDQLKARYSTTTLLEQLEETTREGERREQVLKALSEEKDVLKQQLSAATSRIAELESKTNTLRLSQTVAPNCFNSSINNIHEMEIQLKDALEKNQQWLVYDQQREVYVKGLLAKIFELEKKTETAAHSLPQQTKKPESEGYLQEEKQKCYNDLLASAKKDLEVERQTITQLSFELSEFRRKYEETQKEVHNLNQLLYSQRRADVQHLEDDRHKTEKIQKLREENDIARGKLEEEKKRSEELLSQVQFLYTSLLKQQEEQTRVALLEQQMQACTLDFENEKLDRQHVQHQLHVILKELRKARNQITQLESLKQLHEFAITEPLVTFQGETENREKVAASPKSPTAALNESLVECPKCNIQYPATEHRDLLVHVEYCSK

Protein sequences, listed by entry. Tags and fused reporters are not part of them.
UniProt P36873: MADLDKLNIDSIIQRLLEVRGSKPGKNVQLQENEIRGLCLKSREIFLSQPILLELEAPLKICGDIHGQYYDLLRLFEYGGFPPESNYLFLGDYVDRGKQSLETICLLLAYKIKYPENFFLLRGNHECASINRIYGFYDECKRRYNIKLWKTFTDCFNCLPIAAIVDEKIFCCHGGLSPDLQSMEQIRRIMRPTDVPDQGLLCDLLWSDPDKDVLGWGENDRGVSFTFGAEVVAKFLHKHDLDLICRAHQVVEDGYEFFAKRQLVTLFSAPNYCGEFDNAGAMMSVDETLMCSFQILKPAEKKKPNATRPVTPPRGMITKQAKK
UniProt P62136: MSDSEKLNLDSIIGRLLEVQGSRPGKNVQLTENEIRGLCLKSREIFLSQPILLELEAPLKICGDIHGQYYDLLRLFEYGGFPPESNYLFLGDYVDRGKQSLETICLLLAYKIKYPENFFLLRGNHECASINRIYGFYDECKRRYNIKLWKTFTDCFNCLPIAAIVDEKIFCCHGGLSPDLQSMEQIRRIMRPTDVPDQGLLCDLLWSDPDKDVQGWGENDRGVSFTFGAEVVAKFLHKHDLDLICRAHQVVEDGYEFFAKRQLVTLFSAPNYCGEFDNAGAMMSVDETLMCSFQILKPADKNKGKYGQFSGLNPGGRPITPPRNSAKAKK
UniProt P62140: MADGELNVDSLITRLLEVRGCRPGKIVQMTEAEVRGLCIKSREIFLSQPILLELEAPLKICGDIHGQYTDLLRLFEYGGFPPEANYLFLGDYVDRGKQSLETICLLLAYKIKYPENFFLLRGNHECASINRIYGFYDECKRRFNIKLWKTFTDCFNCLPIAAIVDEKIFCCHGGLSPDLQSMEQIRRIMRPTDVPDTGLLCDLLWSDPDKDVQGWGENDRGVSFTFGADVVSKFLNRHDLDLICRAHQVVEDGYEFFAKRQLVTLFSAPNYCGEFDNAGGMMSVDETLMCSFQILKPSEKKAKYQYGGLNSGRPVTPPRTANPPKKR
UniProt Q15691: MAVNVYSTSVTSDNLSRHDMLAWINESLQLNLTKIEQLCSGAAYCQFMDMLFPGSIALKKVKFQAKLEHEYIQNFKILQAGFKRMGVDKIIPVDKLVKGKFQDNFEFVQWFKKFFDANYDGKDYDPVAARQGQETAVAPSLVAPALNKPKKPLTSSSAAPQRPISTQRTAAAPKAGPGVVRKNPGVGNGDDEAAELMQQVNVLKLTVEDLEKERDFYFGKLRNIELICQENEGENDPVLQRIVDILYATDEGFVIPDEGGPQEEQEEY
UniProt Q99816: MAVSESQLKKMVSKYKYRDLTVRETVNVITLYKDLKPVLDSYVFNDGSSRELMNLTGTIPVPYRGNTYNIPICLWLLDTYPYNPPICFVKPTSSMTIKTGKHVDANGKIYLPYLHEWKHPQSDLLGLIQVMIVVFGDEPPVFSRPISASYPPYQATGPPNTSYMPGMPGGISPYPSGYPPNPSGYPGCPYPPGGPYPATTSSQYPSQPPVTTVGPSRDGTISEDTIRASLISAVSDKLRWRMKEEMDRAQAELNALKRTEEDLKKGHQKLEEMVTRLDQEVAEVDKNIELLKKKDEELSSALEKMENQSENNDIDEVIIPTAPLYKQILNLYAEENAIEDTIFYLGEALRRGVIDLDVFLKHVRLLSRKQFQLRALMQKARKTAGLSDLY
UniProt Q8WUM4: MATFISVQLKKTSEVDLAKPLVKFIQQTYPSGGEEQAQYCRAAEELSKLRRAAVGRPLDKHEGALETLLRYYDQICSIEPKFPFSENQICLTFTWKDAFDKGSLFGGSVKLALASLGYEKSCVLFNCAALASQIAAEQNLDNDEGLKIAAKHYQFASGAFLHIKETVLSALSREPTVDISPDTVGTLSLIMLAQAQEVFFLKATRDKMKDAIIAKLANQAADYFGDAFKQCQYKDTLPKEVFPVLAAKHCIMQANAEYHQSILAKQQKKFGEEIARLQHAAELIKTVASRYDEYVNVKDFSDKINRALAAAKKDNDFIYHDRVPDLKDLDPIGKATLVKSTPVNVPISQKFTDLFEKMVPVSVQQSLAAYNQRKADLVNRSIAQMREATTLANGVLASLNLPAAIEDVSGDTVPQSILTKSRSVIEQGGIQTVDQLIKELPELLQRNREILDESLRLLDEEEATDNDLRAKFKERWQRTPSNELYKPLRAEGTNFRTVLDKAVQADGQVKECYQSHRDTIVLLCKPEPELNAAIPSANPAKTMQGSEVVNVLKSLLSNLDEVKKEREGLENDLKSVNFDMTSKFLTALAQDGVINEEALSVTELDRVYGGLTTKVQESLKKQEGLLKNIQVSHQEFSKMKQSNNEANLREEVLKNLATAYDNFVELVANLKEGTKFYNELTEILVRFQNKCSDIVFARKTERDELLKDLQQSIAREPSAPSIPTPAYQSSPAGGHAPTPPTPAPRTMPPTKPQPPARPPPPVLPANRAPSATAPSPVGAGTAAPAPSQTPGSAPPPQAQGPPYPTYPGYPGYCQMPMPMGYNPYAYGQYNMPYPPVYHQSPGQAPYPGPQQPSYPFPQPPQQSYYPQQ
UniProt P19838: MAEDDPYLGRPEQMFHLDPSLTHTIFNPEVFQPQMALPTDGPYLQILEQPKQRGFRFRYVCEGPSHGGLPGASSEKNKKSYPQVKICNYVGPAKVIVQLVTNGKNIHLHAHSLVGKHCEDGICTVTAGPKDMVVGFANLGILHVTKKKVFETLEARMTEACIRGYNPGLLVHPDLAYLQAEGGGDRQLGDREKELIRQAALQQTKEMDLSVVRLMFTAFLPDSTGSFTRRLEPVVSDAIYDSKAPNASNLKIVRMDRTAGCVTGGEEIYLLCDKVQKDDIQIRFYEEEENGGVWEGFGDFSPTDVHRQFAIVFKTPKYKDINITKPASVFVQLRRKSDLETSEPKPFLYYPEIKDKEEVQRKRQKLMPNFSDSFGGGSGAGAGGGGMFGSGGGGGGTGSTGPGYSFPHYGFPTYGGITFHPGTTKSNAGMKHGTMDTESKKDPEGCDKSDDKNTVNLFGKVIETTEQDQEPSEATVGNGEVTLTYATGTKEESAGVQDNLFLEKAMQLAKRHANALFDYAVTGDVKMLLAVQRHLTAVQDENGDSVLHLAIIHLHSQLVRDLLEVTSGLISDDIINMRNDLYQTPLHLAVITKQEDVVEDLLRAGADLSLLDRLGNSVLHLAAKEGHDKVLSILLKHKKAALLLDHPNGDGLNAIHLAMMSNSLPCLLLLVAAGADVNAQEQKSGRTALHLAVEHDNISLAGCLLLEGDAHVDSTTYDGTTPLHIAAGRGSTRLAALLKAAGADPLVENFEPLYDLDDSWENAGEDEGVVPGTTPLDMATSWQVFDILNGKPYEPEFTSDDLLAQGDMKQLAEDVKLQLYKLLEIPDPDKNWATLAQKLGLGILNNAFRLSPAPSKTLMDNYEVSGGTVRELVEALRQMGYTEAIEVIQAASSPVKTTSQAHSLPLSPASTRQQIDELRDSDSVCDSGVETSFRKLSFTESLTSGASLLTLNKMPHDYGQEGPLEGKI

How did the binding [1] turn out when “PP1γ (catalytic subunit of protein phosphatase 1), endogenous (from UniProt P36873 1-323) (enzyme)” was run?
Its binding is “binds”.

For “PP1α (catalytic subunit of protein phosphatase 1), endogenous (from UniProt P62136 1-330) (enzyme)”, which binding [1] is on record?
Its binding is “binds”.

With “PP1β (catalytic subunit of protein phosphatase 1), endogenous (from UniProt P62140 1-327) (enzyme)” as the substance, how does the binding [1] read?
Its binding is “binds”.

With “MAPRE1 (microtubule plus-end-tracking protein), endogenous (from UniProt Q15691 1-268)” as the substance, how does the binding [1] read?
Its binding is “binds”.

With “MAPRE3 (microtubule plus-end-tracking protein), endogenous (from UniProt Q9UPY8 1-281)” as the substance, how does the binding [1] read?
Its binding is “binds”.

For “TSG101, endogenous (from UniProt Q99816 1-390)”, which binding [2] is on record?
Its binding is “binds”.

For “ALIX, endogenous (from UniProt Q8WUM4 1-868)”, which binding [2] is on record?
The binding was “binds”.

“NFKB1 (NF-κB subunit), endogenous (from UniProt P19838 1-968)” was tested. Which binding [1] did it give?
Its binding is “binds”.

Reference: publication PMC5943338
